Measured values taken from article doi:10.1101/108225.

Biological target: T1, GST-SMA-4 MH1 domain (Caenorhabditis elegans) (UniProt P45897)
T1 sequence (looked up, limits assumed): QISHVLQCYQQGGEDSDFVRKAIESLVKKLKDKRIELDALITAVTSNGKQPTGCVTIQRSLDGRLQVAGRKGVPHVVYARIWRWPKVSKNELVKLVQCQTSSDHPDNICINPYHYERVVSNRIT
Assay: EMSA

Sequence	binding result
ACGGTTTCAAGGTCTGTCTCCTCGAACACG (double strand) [Probe 3 (col-p)]	binds
GGTGAGACAAGCAATGAGAATAGACACACA (double strand) [Probe 4 (col-p)]	binds

Construct, isoform or probe ends are uncertain for at least one entry. Protein sequences can lack the tags named with them.
